Results from PubChem BioAssay AID540256 (National Center for Advancing Translational Sciences (NCATS), 2011).
Screen size: about 300,000 compounds; about 3,700 (1.2%) were called active. The shares of active, inactive and inconclusive entries below differ from those in the screen. Calls follow the shape of the full dose curve; tested in HEK293 cells. Where the call is inconclusive, the potency comes from a doubtful curve fit.

assay: qHTS for Inhibitors of binding or entry into cells for Lassa Virus; conditions: Lassa virus pseudotype entry inhibition, cell reporter; activity change, negative = inhibition: at 37.9 µM (top of the series) unless noted; also: nearly all actives have a fitted effect of over 50% in size
% is scaled to controls: 0 for no effect and ±100 for the full control effect; potency is read from the fitted curve at half-maximal effect.

SMILES | Potency | activity change, negative = inhibition
Cc1ccnc(NS(=O)(=O)c2ccc(NC(=O)c3ccc(Br)o3)cc2)n1 | inconclusive: 4.47 µM [inhibitor, full curve, poor fit] | 
O=C(NC1CCCCC1)N(C1=NCCCCC1)c1ccc(Br)cc1 | inconclusive: 3.16 µM [activator, single point] | 
COc1ccc(NC(=O)CSc2nnc(-c3cccnc3)s2)cc1 | inconclusive: 3.55 µM [activator, full curve, poor fit] | 
Cc1ccc(NP(=O)(Nc2ccc(C)cc2)Nc2ccc(C)cc2)cc1 | inconclusive: 4.47 µM [inhibitor, single point] | 
COc1ccccc1N(Cc1cc2cccc(C)c2[nH]c1=O)C(=O)c1cccc(Cl)c1 | inconclusive: 31.6 µM [inhibitor, single point] | 
Nc1cccc(-c2cc3ccccc3oc2=O)c1 | inconclusive: 3.55 µM [inhibitor, partial curve, poor fit] | 
C/C(=N\OCC(=O)Nc1ccc(OC(F)(F)F)cc1)c1ccc2c(c1)OCCO2 | inconclusive: 0.708 µM [inhibitor, single point] | 
CN(Cc1ccc(C(C)(C)C)cc1)C(=O)c1ccc2c(c1)OCO2 | inconclusive: 20 µM [inhibitor, partial curve, poor fit] | 
CCc1cccc2c1NC(=O)C21N2CCCC2C(C(=O)c2ccc3ccccc3c2)C12C(=O)Nc1ccccc12 (stereo unspecified) | inconclusive: 35.5 µM [inhibitor, single point] | 
O=C(CC(c1ccccc1)c1cc(Br)ccc1O)NCC1(c2ccccc2)CCCC1 (stereo unspecified) | inconclusive: 7.94 µM [inhibitor, partial curve, poor fit] | 
Cc1ccc(OCc2nnc(SCC(=O)C(C)(C)C)n2Cc2ccco2)cc1 |  | inactive: -3.86%
COc1ccccc1N1CCN(C(=O)CNC(=O)c2cn(-c3ccccc3OC)c(=O)c3ccccc23)CC1 | inconclusive: 35.5 µM [inhibitor, single point] | 
Cc1csc(NC(=O)Cc2ccc(Cl)cc2)n1 | inconclusive: 14.1 µM [activator, partial curve, poor fit] | 
O=C(NCc1cccc(Br)c1)c1cccn1-c1nnc(N2CCCCC2)s1 |  | inactive: -10.2% [at 46.1 µM]
Clc1ccc(-c2cc(CSc3cccc(Cl)c3)on2)cc1 |  | inactive: 6.5%
O=C(O)CCc1ccc(-c2cccs2)n1NC(=O)c1ccc(O)cc1 | inconclusive: 29.1 µM [activator, single point] | 
CCCNC(=O)Cc1c(OC)ccc2cc(Br)ccc12 | inconclusive: 1.26 µM [inhibitor, partial curve, poor fit] | 
Cc1ccc(C)c(-c2cc(C(=O)N/N=C/c3cccnc3)c3ccccc3n2)c1 | inconclusive: 35.5 µM [inhibitor, single point] | 
O=C(NCc1ccc(Cl)cc1)c1cc2ccccc2o1 | inconclusive: 7.08 µM [inhibitor, partial curve, poor fit] | 
Cc1ccc(C(C(=O)NCC2CCCO2)N(C(=O)c2snc(C(N)=O)c2N)c2ccccc2)o1 (stereo unspecified) | inconclusive: 1 µM [inhibitor, full curve, poor fit] | 
Cn1nnnc1N=N/C(=N/Nc1ccccc1)c1ccccc1 | inconclusive: 1.58 µM [inhibitor, full curve, poor fit] | 
CC1(c2ccc3c(c2)OCCO3)NC(=O)N(CC(=O)Nc2ccccc2F)C1=O (stereo unspecified) | inconclusive: 0.891 µM [activator, single point] | 

SMILES | Potency | activity change, negative = inhibition
Cc1ccc(Cl)cc1N1CCN(C(=O)Cn2cnc3nc4c(cc3c2=O)CCCC4)CC1 |  | inactive: -17.1% [at 46.1 µM]
CCOC(=O)c1c(C)[nH]c(C(=O)CSc2nnnn2-c2ccccc2)c1C | inconclusive: 0.0065 µM [inhibitor, full curve, poor fit] | 
Cc1ccc2cccc(NC(=O)c3ccc(-c4cc(Cl)ccc4Cl)o3)c2n1 |  | inactive: 3.14% [at 46.1 µM]
CC(C)(C)C(=O)N1CCN(c2ccc(NC(=O)c3ccc([N+](=O)[O-])o3)cc2)CC1 | inconclusive: 17.8 µM [inhibitor, partial curve, poor fit] | 
CCOc1ccc(N(C(=O)c2ccc(C)cc2)S(=O)(=O)c2ccc3c(c2)n(C)c(=O)n3C)cc1 | inconclusive: 4.47 µM [inhibitor, full curve, poor fit] | 
COC(=O)c1cc(NC(=O)C2CC2)cc(C(=O)OC)c1 |  | inactive: -0.897%
Cc1ccc(N(C(=O)c2ccco2)C(C(=O)NC2CCCC2)c2cccnc2)cc1 (stereo unspecified) | inconclusive: 3.98 µM [inhibitor, full curve, poor fit] | 
Cc1cc(NC(=O)C2CC2)ncc1NC(=O)c1ccccn1 |  | inactive: 11.8%
COc1ccc(CC(=O)Nc2nc(-c3ccccc3)c(C(C)=O)s2)cc1OC | inconclusive: 22.4 µM [inhibitor, single point] | 
CCOc1ccc(Cl)cc1S(=O)(=O)n1nnc2ccccc21 |  | inactive: 4.83%
O=C(Nc1ccc(F)cc1)N1CCN(CCc2ccccc2)CC1 |  | inactive: 4.61% [at 46.1 µM]
CC(C)(C)C1CCC(=NNS(=O)(=O)c2ccc(Br)cc2)CC1 (stereo unspecified) | inconclusive: 6.31 µM [activator, single point] | 
Cc1nc2sccn2c(=O)c1S(=O)(=O)NCC1CCN(Cc2ccccc2Cl)CC1 | inconclusive: 35.5 µM [activator, single point] | 
Nc1ccccc1-c1ccc([N+](=O)[O-])cc1 | inconclusive: 6.31 µM [inhibitor, partial curve, poor fit] | 
CCn1cc(S(=O)(=O)c2cc(C)cc(C)c2)c(=O)c2cc(F)c(N3CCC(C)CC3)cc21 | inconclusive: 3.16 µM [inhibitor, partial curve, poor fit] | 
c1ccc(Cc2nc(-c3ccccn3)no2)cc1 | inconclusive: 4.61 µM [activator, partial curve, poor fit] | 
COC(=O)c1ccc(NC(=O)c2ccccc2SC)cc1 | inconclusive: 6.51 µM [activator, single point] | 
O=C(Nc1nccs1)c1cc2c(s1)CCCCC2 | inconclusive: 1.58 µM [inhibitor, full curve, poor fit] | 
COc1ccccc1C(=O)NCC(c1ccco1)N1CCc2ccccc21 (stereo unspecified) |  | inactive: -29.8%
O=C(Nc1ccc2c(c1)oc1ccc(S(=O)(=O)N3CCCC3)cc12)C1CC1 | active: 11.6 µM | 
CCCNC(=O)Nc1ccc2c(c1)N(C)C(=O)c1ccccc1S2 | inconclusive: 0.259 µM [inhibitor, full curve, poor fit] | 
COc1ccc(/C(C)=N/Nc2ccc(C(=O)O)cc2)c(OC)c1 | inconclusive: 32.6 µM [inhibitor, single point] | 

Of the compounds above, these contain two or more sulfur atoms:
SMILES | Potency | activity change, negative = inhibition
COc1ccc(NC(=O)CSc2nnc(-c3cccnc3)s2)cc1 | inconclusive: 3.55 µM [activator, full curve, poor fit] | 
Cc1nc2sccn2c(=O)c1S(=O)(=O)NCC1CCN(Cc2ccccc2Cl)CC1 | inconclusive: 35.5 µM [activator, single point] | 
O=C(Nc1nccs1)c1cc2c(s1)CCCCC2 | inconclusive: 1.58 µM [inhibitor, full curve, poor fit] | 

Next part:

SMILES | Potency | activity change, negative = inhibition
O=C(COc1cccc2cccnc12)N/N=C/c1ccccc1O | inconclusive: 4.11 µM [inhibitor, full curve, poor fit] | 
CCOc1cccc(C2NC(=S)NC(C)=C2C(=O)Nc2ccccc2)c1 (stereo unspecified) |  | inactive: -28.7%
N#Cc1c(N)oc(-c2cccs2)c1-c1cccs1 |  | inactive: 0.176%
O=C1CSC(c2ccccc2Br)N1c1ccc(Cl)cn1 (stereo unspecified) | inconclusive: 35.5 µM [inhibitor, single point] | 
CC1=NN(c2ccccc2)C(=O)C1N=Nc1ccccc1 (stereo unspecified) | inconclusive: 14.6 µM [activator, partial curve, poor fit] | 
COCCN(C(=O)CSc1nnc2cc(C)c3ccccc3n12)c1c(N)n(Cc2ccccc2)c(=O)[nH]c1=O | inconclusive: 12.6 µM [inhibitor, partial curve, poor fit] | 
COc1ccc(-c2cc(CNS(=O)(=O)c3ccc(F)cc3)on2)cc1 | inconclusive: 3.98 µM [inhibitor, partial curve, poor fit] | 
CCc1nc2ccc(C(=O)NCCc3ccc(OC)c(OC)c3)cc2nc1CC |  | inactive: -21.6% [at 46.1 µM]
COc1cc(OC)cc(C(=O)N/N=C/c2ccc(OC)c(COc3ccc4ccccc4c3)c2)c1 |  | inactive: -18.2%
COc1ccc(C(=O)N2CCCC(c3ccccc3)C2)cc1 (stereo unspecified) | active: 4.47 µM | 
CC(C)(C)c1ccc(Oc2ccc(NC(=O)c3cccs3)cn2)cc1 | inconclusive: 31.6 µM [inhibitor, partial curve, poor fit] | 
COCCn1c(N)c(NCc2ccccc2)c(=O)n(CC(=O)Nc2cc(C)ccc2C)c1=O | inconclusive: 10 µM [inhibitor, partial curve, poor fit] | 
CC(C)OC(=O)C1Cc2ccccc2CN1S(=O)(=O)c1cccs1 (stereo unspecified) | inconclusive: 11.2 µM [inhibitor, partial curve, poor fit] | 
Cc1ccc(C)c(N2CCN(C(=O)c3cccn3-c3nnc(N4CCCCC4)s3)CC2)c1 |  | inactive: -16.4% [at 46.1 µM]
O=C(Cn1cc2c(n1)CCCCC2)Nc1ccccc1Cl |  | inactive: 0.0392%
CCCCCCC(=O)N/N=C/c1c(O)n(CCc2ccccc2)c(=O)[nH]c1=O | inconclusive: 35.5 µM [inhibitor, single point] | 
Cc1cc(-c2ccccc2)nc(N/N=C/c2ccccc2F)n1 | inconclusive: 1.78 µM [inhibitor, full curve, poor fit] | 
Cc1ccc(NC(=O)c2ccc(OCC3CCCO3)cc2)nc1 (stereo unspecified) | inconclusive: 25.1 µM [inhibitor, single point] | 
COc1ccc(C(CC(=O)Nc2ccc(OC)c(OC)c2)N2Cc3ccccc3C2=O)cc1 (stereo unspecified) |  | inactive: -16.2% [at 46.1 µM]
O=C(CCNC(=O)c1ccccc1)Nc1ccc(Cl)c(S(=O)(=O)N2CCCCC2)c1 | inconclusive: 12.6 µM [inhibitor, partial curve] | 
COc1ccc(OC)c(CCNC(=O)c2ccc3[nH]c(C)c(C)c3c2)c1 | inconclusive: 35.5 µM [inhibitor, single point] | 
Cc1ccc(NC(=O)CC2SC(=NC3CCCCC3)NC2=O)cc1 (stereo unspecified) | inconclusive: 3.55 µM [activator, partial curve, poor fit] | 

Reformatted in markdown: two of the compounds above.

| SMILES | Potency | activity change, negative = inhibition |
| --- | --- | --- |
| O=C(COc1cccc2cccnc12)N/N=C/c1ccccc1O | inconclusive: 4.11 µM [inhibitor, full curve, poor fit] |  |
| CCOc1cccc(C2NC(=S)NC(C)=C2C(=O)Nc2ccccc2)c1 (stereo unspecified) |  | inactive: -28.7% |
